Laboratory results published in PubChem BioAssay AID2417 (National Center for Advancing Translational Sciences (NCATS), 2010).
The campaign covered roughly 140,000 compounds. About 4,300 (3.1%) were called active. Inconclusive results, whose numbers are uncertain, are shown with a selection of clear calls.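 How the source made its calls: active means readout at or below -70, meaning at least 70% loss of cells showing the perinucleolar compartment, a nuclear body marking cancer cells; inconclusive means readout between -30 and a set limit; inactive means the rest.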

assay: High Content Assay for Compounds that inhibit the Assembly of the Perinucleolar Compartment; details: PC3M PTB-GFP, PNC prevalence imaging, 16 h; at 10 µM; active compounds read low;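 further: plate controls were DMSO wells for no effect and camptothecin positive control wells for full effect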
How it was run: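 Read-out is percentage of cells bearing a perinucleolar compartment, from automated 20x imaging of fixed, Hoechst-stained PC3M PTB-GFP cells. Cells were seeded 4 h, then exposed 16 h to compound (23 nl of library stock) in duplicate plates.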

Row | SMILES | activity change (PNC), negative = inhibition
1 | O=C(NCc1ccco1)c1ccc2c(c1)C(=O)N(C1CCCCC1)C2=O | inactive: 20.5%
2 | CCCC/C(O)=N\S(=O)(=O)c1ccc(N=NN(C)C)cc1 | inactive: 27.7%
3 | CCC(=O)N1CCN(c2ccccc2NC(=O)COc2cc(C)ccc2C(C)C)CC1 | inconclusive: -61.4%
4 | O=C(CO/N=C/c1ccccc1OC(F)F)N1CCc2ccccc21 | inactive: 5%
5 | CCN(CC)c1ccc(Nc2nc(N3CCOCC3)c3ccccc3n2)cc1 | inactive: 36.2%
6 | CCc1nc(SCCO)c2oc3ccccc3c2n1 | inactive: 16%
7 | O=C(Nc1ccc(Cc2ccncc2)cc1)c1ccc(Br)o1 | inconclusive: -42.8%
8 | O=C(CSc1nc2[nH]ncc2c(=O)[nH]1)N1CCCCC1 | inconclusive: -46.4%
9 | O=C(CN1/C(=C(/O)c2ccccc2)C(=O)c2ccccc2S1(=O)=O)c1ccccc1 | inconclusive: -66.9%
10 | CC(=O)c1c(C)oc2c1C(=O)c1ccccc1C2=O | inconclusive: -31.4%
11 | S=C(NCCCN1CCOCC1)Nc1ccc(Cl)c(Cl)c1 | inactive: 21.8%
12 | C/C(=N\NC(=O)c1cccc(F)c1)c1ccc(Br)s1 | inactive: 16.7%
13 | O=C(CC12CC3CC(CC(C3)C1)C2)NCc1ccncc1 | active: -84.5%
14 | O=C(NCc1ccccn1)NC1CCCCC1 | inactive: 6.27%
15 | Oc1ccc(Br)cc1C=Nc1ccc2c3c(cccc13)CC2 | active: -98.5%
16 | O=C(N/N=C/c1ccc(N2CCOCC2)o1)c1cccc(C(F)(F)F)c1 | active: -100%
17 | COc1ccc(-c2csc(N(Cc3ccccc3)C(=O)COc3ccc(Cl)cc3)n2)cc1 | inconclusive: -57.1%
18 | O=C(Nc1cccc2ncccc12)c1ccc(F)cc1 | inactive: 76.1%
19 | O=C(NCc1ccccc1)NC1(C(=O)N2CCOCC2)CCCCC1 | inactive: 21.4%
20 | CCOC(=O)c1nn(-c2ccc(F)cc2)c2nc(-c3ccccc3)c(C#N)c(=O)n12 | inactive: -9.58%
21 | O=C(O)CCn1cc(/C=C\C(=O)c2ccc(Cl)cc2)c(-c2cccc(Br)c2)n1 | inactive: 44.1%
22 | Cc1ccc(CCCOC(=O)C[N+]2(C)CCOCC2)cc1 | inconclusive: -53.8%
23 | O=C(NCc1ccco1)c1ccccc1-c1ccccc1 | inactive: 13%

Row | SMILES | activity change (PNC), negative = inhibition
24 | COC(=O)c1ccc(C2/C(=C(\O)c3cccc(OC)c3)C(=O)C(=O)N2CCCN2CCOCC2)cc1 (configuration not stated) | inconclusive: -55.4%
25 | O=C(CCc1ccc(S(=O)(=O)N2CCOCC2)cc1)Nc1nc(COc2ccccc2)cs1 | inconclusive: -33.4%
26 | COc1ccc(-n2c(C)c(C(C)=O)c3cc(O)ccc32)cc1 | inconclusive: -73.5%
27 | O=C(c1csc(Nc2ccccc2Cl)n1)N1CCCC1 | inactive: 30.3%
28 | CC(C(=O)NCCN1CCOCC1)c1ccc([N+](=O)[O-])cc1 (configuration not stated) | inconclusive: -39%
29 | COc1cc(C(=O)Oc2ccccc2/C=N/NC(=O)c2ccc(C)c(Cl)c2)cc(OC)c1OC | inconclusive: -44.2%
30 | C=CCOc1c(Cl)cc(CNc2ccc(N(C)C)cc2)cc1OC | inconclusive: -46%
31 | [O-][n+]1c2c(c3c4non(O)c4ccc31)CCCC2 | inactive: 10.6%
32 | CC(NCCO)C(=O)C12CC3CC(CC(C3)C1)C2 (configuration not stated) | inconclusive: -38.1%
33 | COc1ccc(NC(=O)c2ccco2)cc1NC(=O)c1c(F)c(F)c(OC)c(F)c1F | inconclusive: -47.1%
34 | O=C(COc1ccc2ccccc2c1)Nc1cccc(C(=O)Nc2ccccc2C(=O)O)c1 | inactive: 40.1%
35 | CN(Cc1ccccc1)C(=O)C1CCCN(Cc2ccc(Cl)cc2)C1 (configuration not stated) | inconclusive: -32.9%
36 | COc1ccccc1N1CCN(C(=O)c2ccc(CSc3ccccc3)cc2)CC1 | inconclusive: -45.2%
37 | CCn1nnc(NC(=O)c2sc3ccccc3c2Cl)n1 | inactive: -17%
38 | Cc1ccc(C(C(=O)NC2CCCC2)N(Cc2cccnc2)C(=O)c2snc(C(N)=O)c2N)o1 (configuration not stated) | inconclusive: -48.1%
39 | COc1ccccc1-n1c(C)nc2cc(C(=O)NCc3ccc4c(c3)OCO4)ccc21 | inconclusive: -32%
40 | Cc1ccc(OCC(=O)Sc2ccc(C)cc2)cc1 | inactive: 67.4%
41 | CNC(=O)CSc1nnnn1-c1cc(C)ccc1C | inactive: 247%
42 | Cc1ccc(Sc2ccc([N+](=O)[O-])cc2[N+](=O)[O-])nc1 | inconclusive: -45.6%
43 | COc1ccc(-c2cc(C(F)(F)F)nc(-n3ccnc3C)n2)cc1 | inactive: 4.14%
44 | COc1ccc(CC(=O)N2CCc3ccccc32)cc1 | inconclusive: -47.5%
45 | COc1ccc(CCNC(=S)Nc2cccc(C)c2C)cc1 | inactive: -25.2%
46 | COc1ccc(-c2cnc(N)n2CC2CCCO2)cc1 (configuration not stated) | inconclusive: -31.8%

Row | SMILES | activity change (PNC), negative = inhibition
47 | CCOc1cc2[nH]c(=O)n(CCCC(=O)NCc3ccco3)c(=O)c2cc1OCC | inactive: 27.1%
48 | COc1ccc(C(=O)O/N=C2\CCCc3nonc32)cc1 | inconclusive: -39.5%
49 | Cc1nn(-c2ccccc2)c2ncc(C(=O)c3cc(Cl)ccc3O)cc12 | inactive: -27.6%
50 | CCc1cccc2c(/C=N/NC(=O)c3cccc(S(=O)(=O)Nc4ccccc4Cl)c3)c[nH]c12 | inactive: -5.99%
51 | CCOC(=O)c1sc(NC(=O)CSc2nc3c(cc2C#N)CCCCC3)c(C#N)c1C | inactive: 15.3%
52 | CCCCNC(=O)CS(=O)Cc1nc(-c2cccc(Cl)c2)oc1C (configuration not stated) | inconclusive: -45.5%
53 | CCOc1ccc(NC(=O)Nc2nnc(CC)s2)cc1 | inactive: 36.4%
54 | COc1ccc(-c2cc(-c3cccs3)c(C#N)c(SCC(=O)NCc3ccccc3OC)n2)cc1 | inactive: 54.7%
55 | COc1ccc(Cl)cc1-n1c(N)c(C(N)=O)sc1=S | inactive: 3.27%
57 | COc1ccc(-c2nc(CSCC(=O)N3CCN(C)CC3)c(C)o2)cc1OC | inactive: 2.29%
58 | COc1ccc(C(=O)Oc2ccc(C(=S)N3CCCC3)cc2)cc1OC | inconclusive: -50.7%
59 | S=c1nc[nH]c2c1[nH]c1ccccc12 | inconclusive: -62.9%
60 | CC(C)CCSc1nnc(Cn2c(=O)sc3ccccc32)n1C | inconclusive: -36%
61 | Cc1ccc(Cn2c(SCC(=O)NCC3CCCO3)nc3c(sc4ccccc43)c2=O)cc1 (configuration not stated) | inconclusive: -50.5%
62 | COCCNC(=O)/C(C#N)=C/c1ccc(-c2ccc(OC)cc2[N+](=O)[O-])o1 | inactive: 45.2%
63 | COc1cccc(/C=N/NC(=O)c2nc(-c3ccccc3)cc(-c3ccccc3)n2)c1O | inconclusive: -47%
64 | COc1cc(C2NC(=O)NC(C)=C2C(=O)OC(C)(C)C)ccc1OCC(=O)O (configuration not stated) | inconclusive: -36.7%
65 | Cc1ccc(/C=C2\SC(N)=NC2=O)s1 | inconclusive: -32.2%
66 | O=C(COC(=O)CCC(=O)c1cccs1)Nc1cc(S(=O)(=O)N2CCOCC2)ccc1Cl | inactive: -21.2%
67 | COc1ccc(NC(=O)CSc2nnc(C3CC3)n2-c2ccccc2)cc1 | inconclusive: -47.7%
68 | CCOC(=O)N1CCN(S(=O)(=O)c2ccc(OCC(=O)OC)c(C)c2)CC1 | active: -84%
69 | Cc1cc(=O)n2c(-c3ccccc3C)n[nH]c2n1 | inconclusive: -56.4%

In a second layout: 25 of the compounds above.
Row	SMILES	activity change (PNC), negative = inhibition
29	COc1cc(C(=O)Oc2ccccc2/C=N/NC(=O)c2ccc(C)c(Cl)c2)cc(OC)c1OC	inconclusive: -44.2%
30	C=CCOc1c(Cl)cc(CNc2ccc(N(C)C)cc2)cc1OC	inconclusive: -46%
31	[O-][n+]1c2c(c3c4non(O)c4ccc31)CCCC2	inactive: 10.6%
32	CC(NCCO)C(=O)C12CC3CC(CC(C3)C1)C2 (configuration not stated)	inconclusive: -38.1%
33	COc1ccc(NC(=O)c2ccco2)cc1NC(=O)c1c(F)c(F)c(OC)c(F)c1F	inconclusive: -47.1%
34	O=C(COc1ccc2ccccc2c1)Nc1cccc(C(=O)Nc2ccccc2C(=O)O)c1	inactive: 40.1%
35	CN(Cc1ccccc1)C(=O)C1CCCN(Cc2ccc(Cl)cc2)C1 (configuration not stated)	inconclusive: -32.9%
36	COc1ccccc1N1CCN(C(=O)c2ccc(CSc3ccccc3)cc2)CC1	inconclusive: -45.2%
37	CCn1nnc(NC(=O)c2sc3ccccc3c2Cl)n1	inactive: -17%
38	Cc1ccc(C(C(=O)NC2CCCC2)N(Cc2cccnc2)C(=O)c2snc(C(N)=O)c2N)o1 (configuration not stated)	inconclusive: -48.1%
39	COc1ccccc1-n1c(C)nc2cc(C(=O)NCc3ccc4c(c3)OCO4)ccc21	inconclusive: -32%
40	Cc1ccc(OCC(=O)Sc2ccc(C)cc2)cc1	inactive: 67.4%
41	CNC(=O)CSc1nnnn1-c1cc(C)ccc1C	inactive: 247%
42	Cc1ccc(Sc2ccc([N+](=O)[O-])cc2[N+](=O)[O-])nc1	inconclusive: -45.6%
43	COc1ccc(-c2cc(C(F)(F)F)nc(-n3ccnc3C)n2)cc1	inactive: 4.14%
44	COc1ccc(CC(=O)N2CCc3ccccc32)cc1	inconclusive: -47.5%
45	COc1ccc(CCNC(=S)Nc2cccc(C)c2C)cc1	inactive: -25.2%
46	COc1ccc(-c2cnc(N)n2CC2CCCO2)cc1 (configuration not stated)	inconclusive: -31.8%
47	CCOc1cc2[nH]c(=O)n(CCCC(=O)NCc3ccco3)c(=O)c2cc1OCC	inactive: 27.1%
48	COc1ccc(C(=O)O/N=C2\CCCc3nonc32)cc1	inconclusive: -39.5%
49	Cc1nn(-c2ccccc2)c2ncc(C(=O)c3cc(Cl)ccc3O)cc12	inactive: -27.6%
50	CCc1cccc2c(/C=N/NC(=O)c3cccc(S(=O)(=O)Nc4ccccc4Cl)c3)c[nH]c12	inactive: -5.99%
51	CCOC(=O)c1sc(NC(=O)CSc2nc3c(cc2C#N)CCCCC3)c(C#N)c1C	inactive: 15.3%
52	CCCCNC(=O)CS(=O)Cc1nc(-c2cccc(Cl)c2)oc1C (configuration not stated)	inconclusive: -45.5%
53	CCOc1ccc(NC(=O)Nc2nnc(CC)s2)cc1	inactive: 36.4%

Later entries

Row | SMILES | activity change (PNC), negative = inhibition
70 | COc1cccc(-c2nc(CS(=O)(=O)CC(=O)Nc3cc(C)ccc3C)c(C)o2)c1 | active: -119%
71 | COc1ccc(CCNC(=O)COc2ccc(S(=O)(=O)NC3CCCCC3)cc2Cl)cc1OC | inactive: 41.2%
72 | COC(=O)c1cc(OC)c(OC)cc1NC(=O)CCc1ccc(C)o1 | inconclusive: -51.8%
73 | CSc1nc2ccccc2n1Cc1cccc(F)c1 | inconclusive: -48%
74 | COc1ccc(C2/C(=C(\O)c3cc(C)ccc3C)C(=O)C(=O)N2CCN(C)C)cc1OC (configuration not stated) | inactive: -24%
75 | N#Cc1c(NC(=O)CSc2nnc(-c3ccccc3)o2)sc2c1CCCC2 | inconclusive: -65.8%
76 | O=C1NC(c2ccccc2)(C(F)(F)F)SC2=NCCCN12 (configuration not stated) | inconclusive: -78.5%
77 | Cc1ccc2c(c1C)NC(=O)C2(O)CC(=O)c1ccc2c(c1)OCO2 (configuration not stated) | inconclusive: -41.4%
78 | COc1ccc(NC(=O)CCN2C(=O)C3C4CCC(C4)C3C2=O)cc1 (configuration not stated) | inactive: -20.5%
79 | C=C(C)CNC(=S)/N=c1\scc(C)n1CC | active: -100%
80 | Cc1cc(OC(C)C)c2c(-c3ccccc3)cc(=O)oc2c1 | inactive: 0.483%
81 | S=c1[nH]nc(-c2cc(-c3ccco3)[nH]n2)n1-c1cccc2ccccc12 | inconclusive: -39.1%
82 | COc1ccc2cc(C#N)c(SCC(=O)NNC(=O)Cc3ccccc3)nc2c1 | inconclusive: -40.6%
83 | Nc1nc(SCC(=O)Nc2cccc(Oc3ccccc3)c2)n[nH]1 | inactive: -17.5%
84 | Cc1nn(Cc2c(Cl)cccc2Cl)c(C)c1NC(=O)c1cc(C(C)C)on1 | active: -102%
85 | COc1ccc(OCC(=O)Nc2ccc(C)cc2)cc1 | inconclusive: -33.9%
86 | Cc1ccc2c(C(=O)CN3CCSCC3)c(C)[nH]c2c1 | inconclusive: -54.4%
87 | O=c1c(C(c2ccc(O)cc2)c2c(O)nc3n(c2=O)CCS3)c(O)nc2n1CCS2 | inactive: 13.6%
88 | O=C(Nc1ccc2nsnc2c1)c1cccs1 | inconclusive: -39.1%
89 | CCSc1ncc(Cl)c(C(=O)N(Cc2ccc(N(C)C)cc2)C2CCS(=O)(=O)C2)n1 (configuration not stated) | inactive: 47.4%
90 | CCN(CCCNC(=O)CC1Oc2ccc(C)cc2NC1=O)Cc1ccccc1 (configuration not stated) | inconclusive: -43.6%
91 | COc1ccc2oc(=O)c(-c3nc(C)cs3)cc2c1 | inactive: -6.63%
92 | CCCOc1ccc(C(C)=O)cc1CN1CCOCC1 | inactive: -4.96%
